Screen size: about 52,000 sequences; about 210 (0.4%) were called active.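 Rule for the calls: active = gene whose silencing raises cell survival under the drug, median off-target-corrected z-score across its silencing RNAs 2 or more; inactive = the rest.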 The list shows a part of the results.

This assay is described as follows: Resistance to Poly (ADP-Ribose) Polymerase inhibitor: Gene Identification via Genome-wide siRNA Screen. The following applies: mouse BRCA2 R2336H ES cells, olaparib, CellTiter-Glo viability; active compounds read high. The procedure, abridged: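 Genome-wide siRNA screen (3 siRNAs/gene, 20 nM) in mouse ES cells carrying hypomorphic BRCA2 R2336H; olaparib 500 nM added 48 h post-transfection, CellTiter-Glo viability 72 h later. Normalized to plate-median negative control; MAD z-scores, gene median, seed-adjusted.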
In the case of CCCAGUUGAACAGAUUCCUTT against Olfr357, the z-score was inactive: -0.67. The value for “GCCGAGUGAAUGAAAGGACTT against 4930579J09Rik” was inactive: 0.843; that for GGCAUCGUCACCAAACUGUTT against Fgf11 was inactive: -0.551; that for GCUUCACCUGACAAUGACUTT against Dsipi was inactive: -0.426.

Consider GCAAGUAUGAGUGUCCCAUTT against Traf6, for which the z-score is inactive: -0.377. GCUACUGGUUGGGUUGAAGTT against Tbcd: the z-score is inactive: -1.03. Take CCGAUUGAAUUACUCAGCATT against Bcas2: the z-score is inactive: -1.37. With GCCCACAAGGAGUGCAUGATT against Cox17, the z-score was inactive: -2.05.

For the sequence “GGUACACUUUGUGCCUGGCTT against 2010002H18Rik”, the z-score is inactive: -0.828. Consider “GGAAGUUCGAUGUUCCUAGTT against 2410030J07Rik”, for which the z-score was inactive: 0.957. For “GCACCAAUUCCCUAACUGGTT against C230093N12Rik”, the z-score was inactive: -1.49.

Regarding GGACGAAUGCUCAGGAGGUTT against BC034076, the z-score is inactive: 0.0748. On to GGACAACCUUUACUUCUCUTT against Psx2, for which the z-score is inactive: -0.591. Regarding “GGACAAAAACAAAUGUGAGTT against 4933417A18Rik”, the z-score is inactive: -0.31.

On to CGGAUGAUGUAUUUAAAGATT against Ftcd, for which the z-score is inactive: 0.28. The value for GGAGGCAGUGUUUUGUCAATT against Fgd4 was inactive: 1.73; that for GCGACUGAUUCCUAUUAAATT against Myd88 was inactive: 0.152; that for GGCACAGAUGUUUUGAGAATT against Surf4 was inactive: -0.103. Take UUGAUUUGGUAGCCUGCUCTT against Olfr1303: the z-score is inactive: -1.35. GGUAACUCCAUUUUAUAGCTT against Adamts12: the z-score was inactive: -0.555. As for GGAGCAGACUUUAAAAUGATT against Stau1, the z-score is inactive: -0.151. As for GGGCUGUCGUGAUUUUUGCTT against Grm7, the z-score is inactive: -0.332. As for GGGAGAACCAGCACAACAUTT against Sdpr, the z-score is inactive: 0.181. Take CGCUAUGGAUAUAAACCAUTT against Pla2g12a: the z-score is inactive: -0.788. As to CCCAGUGUCAUUCAGUAUUTT against Phactr3, the z-score was inactive: 0.768. As to “GGAGCUUGACAUUCUGGAATT against 4632413C14Rik”, the z-score was inactive: 1.77.

On to “GCUUGAAUCCGAUUUGUUATT against 4921521N14Rik”, for which the z-score is inactive: -0.0999. As for CGGUAAGUUAAAGAAGACATT against Keo4, the z-score is inactive: 0.627.

Take GCAGCUGUCAUGUAUACAGTT against Olfr59: the z-score is inactive: -1.53.

Consider GGUUUGGCCUGGAGUGAAATT against Olfr126, for which the z-score was inactive: -2.68. On to GGGCUAAAGUAUAUCCAUUTT against Mapk1, for which the z-score is active: 1.14. The figure for GCCAAUACCAAUCAAGCUGTT against Brunol4 is inactive: -0.848.

On to CCUAUUCAUGCGUCUGUGGTT against Atp6v0c, for which the z-score was inactive: -1.69. Turning to GGACCAGGUAGAGCAAUUUTT against BC034099, the z-score is inactive: 0.676. In the case of GAUAUGUUCGACAACGGCATT against Foxd1, the z-score was inactive: -1.08.

Consider CCAAAUGGUGGUGCUGAGUTT against Jam4, for which the z-score was inactive: 0.705.

Regarding GGAUCAAUGAUACAACUGATT against Il1r1, the z-score is inactive: -0.0968. For the sequence GGACAAAGAAGACUCCCGATT against Dpf2, the z-score was inactive: 0.386. GCCCAAUAGCACAAAGAACTT against Mlr2: the z-score is inactive: 0.852. GGUCCUAGGUACAAUCACUTT against Slfn10: the z-score was inactive: -1.07. As for “GGAAACAAUUCAUGAGCAUTT against 4933424B01Rik”, the z-score is inactive: 2.48. Regarding “GGAGGACCUAGAUGUCAAATT against 1110021E09Rik”, the z-score is inactive: -1.16.

For GGAAAUUCAUGUGACUAUGTT against Sybl1, the z-score is inactive: 1.62. Take GGAAGUUUCCAGCAAGACATT against Spn: the z-score was inactive: -2.7.

On to “GGACAAUGUGGACUUUGAUTT against 9530090G24Rik”, for which the z-score is inactive: -1.46.

As to GCCUAUGAACUUAAUGGCCTT against Zfp180, the z-score is inactive: 1.68.

As to CGGUUGACAGGUAUAUCGCTT against Gpr139, the z-score was inactive: -0.529.

Consider GGUUUCAAAGAGUCUCAUUTT against BC006583, for which the z-score was inactive: -0.0448.

In the case of GUUGUUUAUAGCUUAAGGATT against Olfr1450, the z-score is inactive: -0.596.

As for GGACAAUAGGAGCCUUUAATT against V1rh20, the z-score was inactive: -0.452.

For the sequence GGUUUGUUAGGCAUGAUAATT against Adamts16, the z-score was inactive: -0.0921. On to GGUAACCUGAUGGCUGAAATT against AI839920, for which the z-score is inactive: 1.75.

For GAGCUGGGAGGUUUCACAGTT against Bzrp, the z-score was inactive: -0.489. The value for CUCUAUGGACUAUAGCUAATT against Tas2r109 was inactive: 0.234; that for GCGUGUUUGACCGACACGATT against Plekha3 was inactive: 0.585; that for GCGGGAGACAGAAUACGGUTT against Igfbp3 was inactive: 0.491.

On to “GGAGGAGCUACUGAAAGAUTT against D19Wsu162e”, for which the z-score is inactive: 0.754.

Turning to CGGAGUUUUCAAACAUAUGTT against Anapc13, the z-score is inactive: 0.841. Turning to “GCUUAAGAUUGGAAUACUATT against E130113K22Rik”, the z-score was inactive: -1.28.

Consider GGGAAUUUCACACUGAGUATT against Tpm4, for which the z-score was inactive: -1.29. Regarding GCCGUUCACCAUGAAAUGGTT against Prkci, the z-score was inactive: 0.78. Take GGAAAUCGAGAGAAAUUCATT against Tead2: the z-score is inactive: 0.624. For the sequence GGACAAGAGGAGCUUUUGCTT against Idb3, the z-score was inactive: -0.686. Regarding “GGAAGAUGGCAAUAAUAACTT against 2010012O05Rik”, the z-score is inactive: 0.402. The figure for GGGCUAUUAAAUGAUUUCATT against Pax1 is inactive: -0.101. For GGUCUUCAGGAACCUGAGATT against Pip5k2c, the z-score was inactive: -1.91.
